In paper PMC4895385, “The ubiquitin E3 ligase TRAF6 exacerbates pathological cardiac hypertrophy via TAK1-dependent signalling” (Nature Communications, 2016):
No constants are given. Whether binding was seen depends on the method and setting. Binding seen in cells or lysates may run through a third protein. Some entries that bind do so weakly or less than the wild type.

T1: Traf6 (C70A) mutant (rat, expressed from adenovirus AdTraf6 (C70A)) (rat) (UniProt B5DF45)
T1 sequence: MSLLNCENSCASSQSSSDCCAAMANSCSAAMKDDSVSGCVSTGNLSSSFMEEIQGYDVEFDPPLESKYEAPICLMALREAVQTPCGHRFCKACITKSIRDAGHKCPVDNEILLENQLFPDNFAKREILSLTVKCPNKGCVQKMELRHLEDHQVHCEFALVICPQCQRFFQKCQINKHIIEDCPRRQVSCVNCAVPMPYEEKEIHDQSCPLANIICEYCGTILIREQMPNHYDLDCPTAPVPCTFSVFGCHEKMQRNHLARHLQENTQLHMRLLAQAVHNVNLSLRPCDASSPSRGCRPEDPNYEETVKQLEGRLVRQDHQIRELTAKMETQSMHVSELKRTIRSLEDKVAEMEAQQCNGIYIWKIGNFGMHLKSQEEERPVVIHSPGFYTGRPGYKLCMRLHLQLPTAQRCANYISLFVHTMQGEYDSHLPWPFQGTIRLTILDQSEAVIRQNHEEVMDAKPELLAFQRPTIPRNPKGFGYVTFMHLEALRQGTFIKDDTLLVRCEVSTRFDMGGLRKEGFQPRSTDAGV

T2: Traf6 (rat, expressed from adenovirus AdTraf6) (rat) (UniProt B5DF45)
T2 sequence: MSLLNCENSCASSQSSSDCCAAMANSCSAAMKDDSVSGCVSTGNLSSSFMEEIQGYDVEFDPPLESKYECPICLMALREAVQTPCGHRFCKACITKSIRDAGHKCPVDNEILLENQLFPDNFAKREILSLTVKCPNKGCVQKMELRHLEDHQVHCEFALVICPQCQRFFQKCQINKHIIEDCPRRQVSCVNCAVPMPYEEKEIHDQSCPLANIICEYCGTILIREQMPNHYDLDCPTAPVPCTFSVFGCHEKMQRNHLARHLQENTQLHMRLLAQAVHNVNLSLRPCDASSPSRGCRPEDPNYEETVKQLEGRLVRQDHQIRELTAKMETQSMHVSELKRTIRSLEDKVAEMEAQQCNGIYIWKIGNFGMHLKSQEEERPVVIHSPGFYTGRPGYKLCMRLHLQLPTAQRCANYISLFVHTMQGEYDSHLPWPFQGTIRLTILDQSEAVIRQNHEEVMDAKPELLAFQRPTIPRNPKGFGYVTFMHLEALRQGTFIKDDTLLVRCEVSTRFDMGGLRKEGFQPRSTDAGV


Experiments:
[1] = biological target: T1, Traf6 (C70A) mutant (rat, expressed from adenovirus AdTraf6 (C70A)) (rat); assay: co-IP; neonatal rat cardiomyocytes infected with the indicated adenovirus, Ang II for 15 min with or without NAC; IP with anti-TRAF6 antibody, blot with anti-TAB2 or anti-TAK1
[2] = biological target: T2, Traf6 (rat, expressed from adenovirus AdTraf6) (rat); assay: as above

Row | binding [1] | binding [2] | Binder
1 | no binding | binds | Tab2 (protein, UniProt Q5U303 1-693) MAQGSHQIDFQVLHDLRQKFPEVPEVVVSRCMLQNNNNLDACCAVLSQESTRYLYGEGDLNFSDESGISGLRNHMTSLNLDLQSQNVYHHGREGSRVNGSRTLTHSVSDGQLQGGQSNNELFQQEPQTAPAQVPQGFNVFGMPSTSGASNSTPHLGFHLGSKGTSNLSQQTPRFNPIMVTLAPNIQTGRSTPTSLHIHGVPPPVLNSPQGNSIYIRPYITTPSGAARQTQQHSGWVSQFNPVNPQQAYQPSQPGPWTTYPASNPLPHTSTQQPNQQGHQTSHVYMPISSPTTPQPPTVHSSASSQSSAHSQYNIQNISTGPRKNQIEIKLEPPQRNSSSKLRSSGPRTASTSSLVNSQTLNRNQPTVYIAASPPSTDEMISRSQPKVYISANASTGDEQGMRNQPTLFISTNSGASAASRNMSGQVSMGPAFIHHHPPKSRVLGGNSAASPRVVVTQPNTKYTFKITVSPNKPPAVSPGVVSPTFELTNLLNHPDHYVETETIQHLTDPTLAHVDRVSEARKLSMGSDDAAYTQALLVHQKARMERLQRELEMQKKKLDKLKSEVNEMENSLTRRRLKRSNSMSQIPSLEEMQQLRSCNRQLQIDIDCLTKEIDLFQARGPHFNPSAIHNFYDNIGFVGPVPPKPKDQRSTIKAPKTQDTEDEEGAQWNCTACTFLNHPALIRCEQCEMPRHF
2 | no binding | binds | Tak1 (transforming growth factor beta-activated kinase 1) (protein, UniProt P0C8E4 1-606) MSTASAASSSSSSSASEMIEAPSQVLNFEEIDYKEIEVEEVVGRGAFGVVCKAKWRAKDVAIKQIESESERKAFIVELRQLSRVNHPNIVKLYGACLNPVCLVMEYAEGGSLYNVLHGAEPLPYYTAAHAMSWCLQCSQGVAYLHSMQPKALIHRDLKPPNLLLVAGGTVLKICDFGTACDIQTHMTNNKGSAAWMAPEVFEGSNYSEKCDVFSWGIILWEVITRRKPFDEIGGPAFRIMWAVHNGTRPPLIKNLPKPIESLMTRCWSKDPSQRPSMEEIVKIMTHLMRYFPGADEPLQYPCQYSDEGQSNSATSTGSFMDIASTNTSNKSDTNMEQVPATNDTIKRLESKLLKNQAKQQSDSGRLSLGASRGSSVESLPPTSEGKRMSADMSEIEARIVATTAYTKPKRGHRKTASFGNILDVPEIVISGNGQPRRRSIQDLTVTGTEPGQVSSRSSSPSVRMITTSGPTSEKPARSLPWTPDDSTDTNGSDNSIPMAYLTLDHQLQPLAPCPNSKESMAVFEQHCKMAQEYMKVQTEIALLLQRKQELVAELDQDEKDQQNTSRLVQEHKKLLDENKSLSTYYQQCKKQLEVIRSQQQKRQGTS
